In patent US20160046678A1 (ZYNGENIA, published 2016):
These are yes or no findings as the source states them, for the method shown. Some entries that bind do so weakly or less than the wild type.

T1: TL1A (UniProt O95150)
T1 sequence (looked up): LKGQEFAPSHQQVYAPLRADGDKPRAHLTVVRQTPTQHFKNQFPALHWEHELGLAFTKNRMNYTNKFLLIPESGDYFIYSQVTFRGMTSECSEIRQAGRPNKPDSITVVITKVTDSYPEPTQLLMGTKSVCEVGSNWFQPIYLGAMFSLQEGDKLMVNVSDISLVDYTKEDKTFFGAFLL


biological target: T1, TL1A; experiment: peptide selection, Example 48

Row | binding | Binder
1 | binds | PYEVCWDFHLDRLVFCDADK [TLA407]
2 | binds | DYEVCWDFDLDRLVYCDSDV [TLA420]
3 | binds | NHDVCWEFHLDRLVYCDGPS [TLA412]
4 | binds | DYDVCWDIHLDRLVYCDGPL [TLA395]
5 | binds | DYEVCWDFDIDRLVYCNPPM [TLA399]
6 | binds | DYDVCWDFDLDRLVYCSGPL [TLA422]
7 | binds | DDQVCWDVKIDRLVYCEALM [TLA415]
8 | binds | EYDVCWDFDIDRLVYCVPLS [TLA434]
9 | binds | DYDVCWDEDVDRLVYCEPPI [TLA419]
10 | binds | KYEVCWDEHIDRLVYCDVPM [TLA430]
11 | binds | DHEVCWDEHVDRLVYCYKAI [TLA447]
12 | binds | HSDVCWDFDIDRLVFCDTLI [TLA416]
13 | binds | DYEVCWDDYADRLVYCDLSL [TLA379]
14 | binds | ALEVCWDFDVDHLVYCAAAL [TLA385]
15 | binds | DYAVCWDDHVEHLVYCDASW [TLA441]
16 | binds | EYEVCWDVNVDRLVWCYATM [TLA445]
17 | binds | EYVVCWDTEVDHLVYCDAAM [TLA438]
18 | binds | DDAVCWDYHLDRLVFCETPM [TLA394]
19 | binds | DYEVCWDVEVDRLVYCVGHK [TLA406]
20 | binds | YSDVCWDFDLDRLVYCEAHL [TLA431]
21 | binds | DYSVCWDFYFDRLVYCNALF [TLA403]
22 | binds | HYDVCWDDQVDRLVYCHAPL [TLA433]
23 | binds | DYAVCWDAHMDHLVYCDAIA [TLA378]

Row | binding | Binder
24 | binds | DHEVCWDFELDRLVYCYKAK [TLA429]
25 | binds | HYAVCWDFHLDRLVYCDRPS [TLA381]
26 | binds | DYDVCWDEHLDRLVYCNGLG [TLA444]
27 | binds | DYAVCWDDHFDRLVYCDWTT [TLA443]
28 | binds | NYQVCWDFDLDRLVYCGAHK [TLA436]
29 | binds | NHDVCWDFHVDRLVYCDTPI [TLA377]
30 | binds | DYEVCWDVDVDRLVYCDGPK [TLA440]
31 | binds | DYEVCWDIHLDRLVYCNTPM [TLA418]
32 | binds | GFEVCWDVDLDRLVFCAASE [TLA427]
33 | binds | DYDVCWDFDFERLVFCNSSM [TLA442]
34 | binds | DYEVCWDDHLDRLVYCDAPG [TLA421]
35 | binds | QYDVCWDIYSDRLVYCDAHL [TLA388]
36 | binds | YSDVCWDFYYDRLVYCDASI [TLA439]
37 | binds | SYEVCWDVHLDRLVYCNSVM [TLA380]
38 | binds | DYDVCWDVNADRLVYCNAIL [TLA411]
39 | binds | DYEVCWDLYLGRLYYCNAPI [TLA389]
40 | binds | DWEVCWDVHLDRLVFCETLI [TLA409]
41 | binds | DYEVCWDVHLDRLVYCDGPL [TLA402]
42 | binds | DYEVCWDVQLDRLVYCDGAM [TLA396]
43 | binds | DYEVCWDVNLDRLVYCAGPM [TLA432]
44 | binds | DYAVCWDVYADRLIYCEVPM [TLA398]
45 | binds | YYEVCWDLNLDRLVYCDVNK [TLA435]
46 | binds | DYEVCWDFLLDRLVYCDAPI [TLA408]

Row | binding | Binder
47 | binds | GYEVCWDLKWDRLVFCDAPI [TLA384]
48 | binds | SYAVCWDFDLERLVYCEIPL [TLA428]
49 | binds | DYEVCWDVHVGRLIYCNALI [TLA404]
50 | binds | DNEVCWDGHVDRLVFCDSTM [TLA376]
51 | binds | DYEVCWDFDFDRLVFCEAVM [TLA410]
52 | binds | DYEVCWDVIRGRLVYCETPM [TLA382]
53 | binds | DYEVCWDVHAERLYYCDAPI [TLA446]
54 | binds | EYALCWDQDKEILHWCVEFY [TLA375]
55 | binds | AYEVCWDVNLDRLVYCEALM [TLA383]
56 | binds | DYEVCWDVYFGRLVYCDVLM [TLA437]
57 | binds | EYEVCWDVNVDRLVYCNMPN [TLA390]
58 | binds | DYEVCWDDHVDRLVYCDRTL [TLA423]
59 | binds | HYEVCWDAHFDRLVYCEAPI [TLA425]
60 | binds | DYEVCWDVHFDRLVYCDTPL [TLA391]
61 | binds | EFEVCWDVHLDRLVYCHATM [TLA386]
62 | binds | DYEVCWSDDLDRLVYCQALI [TLA393]
63 | binds | DLEVCWDFDVDRLVYCEAPI [TLA426]
64 | binds | DYEVCWDPHVDRLVYCDAPA [TLA424]
65 | binds | SYDVCWDDVVDRLVYCEATL [TLA405]
66 | binds | DYEVCWDVQLEHLVYCEAPI [TLA413]
67 | binds | DYEVCWDVHVERLVYCEDLI [TLA397]
